The target of assay [1] is EGFP-tagged CELF1 (CUGBP Elav-like family member 1) (human) (UniProt Q92879). The experiment in a line: FRET or BRET. (In general: In BRET a luciferase serves as donor, and the signal depends on an acceptor being close.)
Assay [2] has as its target EGFP-tagged ELAVL1 (ELAV-like RNA-binding protein 1) (human) (UniProt Q15717). Put plainly: FRET or BRET.

By UniProt entry, the sequences of proteins in these tests, tags left out.
UniProt Q92879: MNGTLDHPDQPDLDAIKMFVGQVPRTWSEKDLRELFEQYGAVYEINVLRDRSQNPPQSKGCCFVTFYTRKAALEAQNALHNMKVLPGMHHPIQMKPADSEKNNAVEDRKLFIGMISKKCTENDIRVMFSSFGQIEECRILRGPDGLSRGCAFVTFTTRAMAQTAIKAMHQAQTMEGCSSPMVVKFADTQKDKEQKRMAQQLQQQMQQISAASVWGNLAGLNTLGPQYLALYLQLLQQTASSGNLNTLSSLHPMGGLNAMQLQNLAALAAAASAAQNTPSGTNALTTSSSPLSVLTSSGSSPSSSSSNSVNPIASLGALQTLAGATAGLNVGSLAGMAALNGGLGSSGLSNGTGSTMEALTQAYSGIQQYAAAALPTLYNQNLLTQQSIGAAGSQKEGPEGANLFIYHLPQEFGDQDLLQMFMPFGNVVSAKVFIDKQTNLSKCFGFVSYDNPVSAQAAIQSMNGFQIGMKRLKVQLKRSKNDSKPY
UniProt Q15717: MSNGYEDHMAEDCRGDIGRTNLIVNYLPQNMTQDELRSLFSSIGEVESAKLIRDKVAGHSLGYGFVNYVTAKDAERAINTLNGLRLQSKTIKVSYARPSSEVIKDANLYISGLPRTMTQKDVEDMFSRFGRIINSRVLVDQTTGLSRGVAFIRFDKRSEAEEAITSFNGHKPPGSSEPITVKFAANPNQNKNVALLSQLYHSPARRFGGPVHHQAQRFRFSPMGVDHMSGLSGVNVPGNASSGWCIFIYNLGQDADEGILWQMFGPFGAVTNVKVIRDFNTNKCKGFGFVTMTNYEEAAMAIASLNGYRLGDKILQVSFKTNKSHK

No constants are given. Whether binding was seen depends on the method and setting. Binding seen in cells or lysates may run through a third protein. Some entries that bind do so weakly or less than the wild type.

Regarding “mCherry-tagged CELF1 (CUGBP Elav-like family member 1) (from UniProt Q92879 1-486)”, the binding result in assay [1] and in assay [2] was “binds” in each case.
On to “mCherry-tagged ELAVL1 (ELAV-like RNA-binding protein 1) (from UniProt Q15717 1-326)”, for which the binding entry in assay [1] is given as “binds”.

Source of the values: paper doi:10.1101/373704.
